The exact form of at least one protein or probe is not confirmed. For part of these data: Negatives hold for the conditions tested.
Key:
[1] = test system: PBX (pre-B-cell leukemia transcription factor-1) (Ciona intestinalis); assay: SPR; settings: high, no fit, multimer, purified recombinant protein, protein details: His6, E. coli, label: biotin, single-stranded DNA
[2] = test system: HOX4 homeodomain fragment; assay: ELONA; settings: PBS-T, 4 C overnight; very little binding also on protein blot (FIG. 7C); purified recombinant protein; label: biotin; single-stranded DNA

## GGTATTGAGGGTCGCATCGCTATGGGTGGTCTGGTTGGGATTGGCCCCGGGAGCTGGCGATGGCTCTAACTCTCCTCT [6H7]
[1]; unusual response
  binding result: binds

## GGTATTGAGGGTCGCATCTCAAAAGGGGTGATTGCTTGCACAATGACAGGGTAGGACAGATGGCTCTAACTCTCCTCT [TTF1 Aptamer A]
[2]
  binding result: no binding

## GGTATTGAGGGTCGCATCGGCTTCAGGTTGGTCTGGTTGGGTTTGGCTCCTGTGTACGGATGGCTCTAACTCTCCTCT [6H5]
[1]; unusual response 3-4 times expected, also affinity purified from lysate
  binding result: binds

— US20050142582
